Data reported in PMC11253597.
Residue numbers refer to the chain shown, from its start. These are yes or no findings as the source states them, for the method shown. In cells and extracts the contact can be indirect. Some results given as binding are weak or reduced against the parent protein; the word gives no strength. Tags and fused reporters may be left off the sequences shown.

Columns and labels:
Assay in all cases: co-IP; GFP-tagged β-2-syntrophin (GFP::SNTB2) variants co-expressed with mCherry::SseM in SNTB2 KO1 HEK293 cells; GFP-trap immunoprecipitation, immunoblot
[1] = biological target: T1, GFP::SNTB2 (human) (UniProt Q13425)
T1 sequence: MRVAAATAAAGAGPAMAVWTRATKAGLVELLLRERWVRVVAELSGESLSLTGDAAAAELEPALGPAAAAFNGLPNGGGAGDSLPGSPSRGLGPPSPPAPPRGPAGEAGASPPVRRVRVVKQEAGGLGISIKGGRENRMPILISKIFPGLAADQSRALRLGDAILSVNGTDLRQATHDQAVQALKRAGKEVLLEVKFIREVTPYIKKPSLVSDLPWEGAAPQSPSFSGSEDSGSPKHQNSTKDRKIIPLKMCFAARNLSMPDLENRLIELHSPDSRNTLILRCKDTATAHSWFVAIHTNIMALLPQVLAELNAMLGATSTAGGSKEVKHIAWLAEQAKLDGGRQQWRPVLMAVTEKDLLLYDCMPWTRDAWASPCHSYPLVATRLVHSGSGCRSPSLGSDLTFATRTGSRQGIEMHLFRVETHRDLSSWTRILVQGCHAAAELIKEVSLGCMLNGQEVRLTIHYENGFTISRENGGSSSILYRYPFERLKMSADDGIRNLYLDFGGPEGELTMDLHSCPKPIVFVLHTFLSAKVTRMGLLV

[2] = biological target: T2, GFP::SNTB2^GLGI4A (human) (UniProt Q13425)
T2 sequence: T1 sequence with G125A, L126A, G127A, I128A

[3] = biological target: T3, GFP::SNTB2^H176V (human) (UniProt Q13425)
T3 sequence: T1 sequence with H176V

[4] = biological target: T4, GFP::SNTB2^H176Y (human) (UniProt Q13425)
T4 sequence: T1 sequence with H176Y

Measured: binding

B1: α-dystrobrevin (protein, UniProt Q9Y4J8 1-743)
chain: MIEDSGKRGNTMAERRQLFAEMRAQDLDRIRLSTYRTACKLRFVQKKCNLHLVDIWNVIEALRENALNNLDPNTELNVSRLEAVLSTIFYQLNKRMPTTHQIHVEQSISLLLNFLLAAFDPEGHGKISVFAVKMALATLCGGKIMDKLRYIFSMISDSSGVMVYGRYDQFLREVLKLPTAVFEGPSFGYTEQSARSCFSQQKKVTLNGFLDTLMSDPPPQCLVWLPLLHRLANVENVFHPVECSYCHSESMMGFRYRCQQCHNYQLCQDCFWRGHAGGSHSNQHQMKEYTSWKSPAKKLTNALSKSLSCASSREPLHPMFPDQPEKPLNLAHIVDTWPPRPVTSMNDTLFSHSVPSSGSPFITRSSPPKDSEVEQNKLLARAAPAFLKGKGIQYSLNVADRLADEHVLIGLYVNMLRNNPSCMLESSNRLDEEHRLIARYAARLAAESSSSQPPQQRSAPDISFTIDANKQQRQLIAELENKNREILQEIQRLRLEHEQASQPTPEKAQQNPTLLAELRLLRQRKDELEQRMSALQESRRELMVQLEGLMKLLKTQGAGSPRSSPSHTISRPIPMPIRSASACSTPTHTPQDSLTGVGGDVQEAFAQSSRRNLRNDLLVAADSITNTMSSLVKELNSEVGSETESNVDSEFARTQFEDLVPSPTSEKAFLAQIHARKPGYIHSGATTSTMRGDMVTEDADPYVQPEDENYENDSVRQLENELQMEEYLKQKLQDEAYQVSLQG
binds: all assays above
